Source: the supplement of paper PMC10849652
The other results are listed elsewhere or left out.

Protein sequences, listed by entry. Tags and fused reporters are not part of them. Lines headed by an entry give the natural chain unless they say otherwise; changes in a name come on top.
UniProt Q659A1: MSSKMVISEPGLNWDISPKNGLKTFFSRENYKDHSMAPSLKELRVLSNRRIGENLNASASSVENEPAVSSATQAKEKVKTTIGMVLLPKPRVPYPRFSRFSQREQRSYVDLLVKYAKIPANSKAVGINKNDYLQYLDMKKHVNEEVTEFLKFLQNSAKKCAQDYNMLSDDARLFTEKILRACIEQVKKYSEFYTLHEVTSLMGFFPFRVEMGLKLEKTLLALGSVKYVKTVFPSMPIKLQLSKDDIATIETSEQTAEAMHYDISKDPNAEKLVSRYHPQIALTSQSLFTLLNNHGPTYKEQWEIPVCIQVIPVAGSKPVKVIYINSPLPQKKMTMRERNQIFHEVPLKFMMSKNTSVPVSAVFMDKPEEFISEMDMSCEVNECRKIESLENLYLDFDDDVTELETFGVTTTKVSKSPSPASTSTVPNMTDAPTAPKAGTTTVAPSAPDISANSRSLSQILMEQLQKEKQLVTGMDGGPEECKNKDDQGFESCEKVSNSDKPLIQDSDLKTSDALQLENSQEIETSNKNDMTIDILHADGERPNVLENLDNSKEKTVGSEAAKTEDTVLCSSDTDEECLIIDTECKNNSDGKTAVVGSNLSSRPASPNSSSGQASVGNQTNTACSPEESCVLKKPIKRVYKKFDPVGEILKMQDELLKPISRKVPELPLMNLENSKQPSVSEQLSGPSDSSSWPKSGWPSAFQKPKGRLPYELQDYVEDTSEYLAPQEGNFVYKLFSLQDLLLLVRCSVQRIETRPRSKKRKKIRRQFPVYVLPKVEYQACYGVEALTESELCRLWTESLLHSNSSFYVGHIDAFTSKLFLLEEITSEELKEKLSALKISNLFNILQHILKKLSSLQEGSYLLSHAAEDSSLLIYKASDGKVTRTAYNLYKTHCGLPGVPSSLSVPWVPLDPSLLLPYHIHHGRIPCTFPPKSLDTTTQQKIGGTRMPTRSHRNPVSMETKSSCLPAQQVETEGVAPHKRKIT
UniProt P13747, whole entry, looked up: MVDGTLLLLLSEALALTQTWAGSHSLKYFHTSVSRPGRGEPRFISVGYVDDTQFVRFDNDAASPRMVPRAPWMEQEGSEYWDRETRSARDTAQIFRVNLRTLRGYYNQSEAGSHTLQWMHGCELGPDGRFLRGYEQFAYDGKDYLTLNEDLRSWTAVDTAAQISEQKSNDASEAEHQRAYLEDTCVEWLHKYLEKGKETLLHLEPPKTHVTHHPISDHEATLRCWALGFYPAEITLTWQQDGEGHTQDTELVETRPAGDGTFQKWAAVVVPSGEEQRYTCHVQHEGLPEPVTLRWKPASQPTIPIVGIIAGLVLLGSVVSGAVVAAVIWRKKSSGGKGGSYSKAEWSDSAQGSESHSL
UniProt Q8TB92: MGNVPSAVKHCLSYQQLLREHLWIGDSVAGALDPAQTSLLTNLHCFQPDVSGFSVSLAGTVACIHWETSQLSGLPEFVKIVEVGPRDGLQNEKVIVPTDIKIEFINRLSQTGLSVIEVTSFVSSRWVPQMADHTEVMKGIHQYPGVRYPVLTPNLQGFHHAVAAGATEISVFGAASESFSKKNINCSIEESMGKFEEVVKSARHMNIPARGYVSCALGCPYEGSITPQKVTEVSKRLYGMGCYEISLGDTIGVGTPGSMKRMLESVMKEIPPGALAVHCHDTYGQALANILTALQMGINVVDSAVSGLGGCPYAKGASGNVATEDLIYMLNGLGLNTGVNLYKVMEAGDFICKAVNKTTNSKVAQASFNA
UniProt Q9Y241: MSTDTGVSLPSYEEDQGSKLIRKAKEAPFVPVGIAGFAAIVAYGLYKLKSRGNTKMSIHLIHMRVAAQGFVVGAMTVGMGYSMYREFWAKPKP
UniProt Q9UMF0: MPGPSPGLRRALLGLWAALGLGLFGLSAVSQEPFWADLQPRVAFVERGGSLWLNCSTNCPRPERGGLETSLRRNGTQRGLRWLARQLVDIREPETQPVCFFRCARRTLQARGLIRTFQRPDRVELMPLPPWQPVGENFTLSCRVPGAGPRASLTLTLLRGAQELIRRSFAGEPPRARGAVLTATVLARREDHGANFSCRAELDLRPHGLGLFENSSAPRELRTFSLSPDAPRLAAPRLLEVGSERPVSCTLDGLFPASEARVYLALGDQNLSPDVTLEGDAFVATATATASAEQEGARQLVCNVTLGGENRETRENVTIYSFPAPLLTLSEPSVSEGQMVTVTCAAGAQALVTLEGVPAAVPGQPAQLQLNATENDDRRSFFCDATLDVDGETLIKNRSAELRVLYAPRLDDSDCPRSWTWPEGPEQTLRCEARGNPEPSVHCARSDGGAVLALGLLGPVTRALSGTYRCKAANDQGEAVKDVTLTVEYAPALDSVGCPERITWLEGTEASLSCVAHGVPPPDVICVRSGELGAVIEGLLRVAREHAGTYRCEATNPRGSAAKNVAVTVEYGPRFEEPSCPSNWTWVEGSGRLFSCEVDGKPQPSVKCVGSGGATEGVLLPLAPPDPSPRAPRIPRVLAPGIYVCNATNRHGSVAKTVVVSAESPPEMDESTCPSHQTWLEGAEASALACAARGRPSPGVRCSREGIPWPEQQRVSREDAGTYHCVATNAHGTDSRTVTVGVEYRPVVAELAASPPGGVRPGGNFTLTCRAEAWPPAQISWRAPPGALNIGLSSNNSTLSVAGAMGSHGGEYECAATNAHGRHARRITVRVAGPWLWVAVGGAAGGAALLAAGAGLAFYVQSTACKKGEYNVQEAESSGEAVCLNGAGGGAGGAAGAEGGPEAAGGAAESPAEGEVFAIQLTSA
UniProt Q00839, whole entry, looked up: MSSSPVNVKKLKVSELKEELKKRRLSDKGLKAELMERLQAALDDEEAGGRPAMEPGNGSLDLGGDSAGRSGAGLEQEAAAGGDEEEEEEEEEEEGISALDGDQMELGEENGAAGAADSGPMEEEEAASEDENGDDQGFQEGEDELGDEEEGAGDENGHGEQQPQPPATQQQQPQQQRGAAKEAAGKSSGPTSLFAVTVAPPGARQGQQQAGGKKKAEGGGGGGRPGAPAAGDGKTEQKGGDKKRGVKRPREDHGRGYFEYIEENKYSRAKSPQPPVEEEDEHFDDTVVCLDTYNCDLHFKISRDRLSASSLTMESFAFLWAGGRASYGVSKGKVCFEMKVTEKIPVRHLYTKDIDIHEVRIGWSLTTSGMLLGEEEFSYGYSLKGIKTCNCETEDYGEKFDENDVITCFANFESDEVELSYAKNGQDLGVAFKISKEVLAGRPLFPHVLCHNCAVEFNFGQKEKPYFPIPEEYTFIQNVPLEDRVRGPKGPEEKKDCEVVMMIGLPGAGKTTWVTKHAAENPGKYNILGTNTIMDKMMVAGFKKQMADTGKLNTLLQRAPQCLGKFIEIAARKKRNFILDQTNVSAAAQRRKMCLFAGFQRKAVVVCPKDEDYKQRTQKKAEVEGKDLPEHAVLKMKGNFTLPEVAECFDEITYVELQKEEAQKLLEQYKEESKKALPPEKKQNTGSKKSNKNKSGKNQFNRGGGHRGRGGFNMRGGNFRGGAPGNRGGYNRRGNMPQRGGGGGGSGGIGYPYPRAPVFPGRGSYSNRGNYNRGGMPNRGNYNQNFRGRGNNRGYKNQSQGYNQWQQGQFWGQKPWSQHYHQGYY
UniProt Q9UGU5: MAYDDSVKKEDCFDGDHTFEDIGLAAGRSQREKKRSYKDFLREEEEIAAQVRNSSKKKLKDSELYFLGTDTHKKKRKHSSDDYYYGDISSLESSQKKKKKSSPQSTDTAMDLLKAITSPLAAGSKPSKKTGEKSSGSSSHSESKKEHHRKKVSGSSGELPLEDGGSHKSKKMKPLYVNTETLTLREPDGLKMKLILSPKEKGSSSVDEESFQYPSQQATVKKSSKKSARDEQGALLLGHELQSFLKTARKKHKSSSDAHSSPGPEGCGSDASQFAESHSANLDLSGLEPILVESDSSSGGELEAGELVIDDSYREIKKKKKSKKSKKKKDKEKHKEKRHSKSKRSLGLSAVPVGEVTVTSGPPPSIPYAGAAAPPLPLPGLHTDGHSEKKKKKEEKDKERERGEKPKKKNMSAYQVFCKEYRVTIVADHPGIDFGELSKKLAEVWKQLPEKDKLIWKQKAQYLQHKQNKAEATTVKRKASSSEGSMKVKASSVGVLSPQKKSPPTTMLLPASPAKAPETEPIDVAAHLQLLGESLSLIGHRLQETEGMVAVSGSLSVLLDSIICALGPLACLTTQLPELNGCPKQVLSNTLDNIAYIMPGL
UniProt Q9NQG7: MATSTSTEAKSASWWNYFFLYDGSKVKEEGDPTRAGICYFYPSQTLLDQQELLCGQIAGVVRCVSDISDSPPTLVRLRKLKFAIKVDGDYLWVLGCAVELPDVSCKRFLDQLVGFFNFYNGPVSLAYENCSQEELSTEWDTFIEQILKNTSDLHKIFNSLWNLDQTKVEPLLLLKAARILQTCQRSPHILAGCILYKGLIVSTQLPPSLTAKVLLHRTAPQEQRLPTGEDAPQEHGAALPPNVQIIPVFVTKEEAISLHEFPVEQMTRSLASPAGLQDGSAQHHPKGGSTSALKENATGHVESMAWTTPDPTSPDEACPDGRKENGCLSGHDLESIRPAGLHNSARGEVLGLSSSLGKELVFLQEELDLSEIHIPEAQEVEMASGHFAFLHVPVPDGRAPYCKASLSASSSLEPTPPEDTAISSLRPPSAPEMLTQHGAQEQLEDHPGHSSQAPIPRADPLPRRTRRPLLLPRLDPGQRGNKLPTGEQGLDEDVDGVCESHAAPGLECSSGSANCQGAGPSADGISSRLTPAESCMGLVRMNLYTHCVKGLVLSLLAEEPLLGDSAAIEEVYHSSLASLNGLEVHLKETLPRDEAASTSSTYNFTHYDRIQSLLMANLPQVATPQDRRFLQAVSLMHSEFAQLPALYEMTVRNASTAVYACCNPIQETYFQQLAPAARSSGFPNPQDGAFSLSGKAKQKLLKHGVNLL
UniProt P17482: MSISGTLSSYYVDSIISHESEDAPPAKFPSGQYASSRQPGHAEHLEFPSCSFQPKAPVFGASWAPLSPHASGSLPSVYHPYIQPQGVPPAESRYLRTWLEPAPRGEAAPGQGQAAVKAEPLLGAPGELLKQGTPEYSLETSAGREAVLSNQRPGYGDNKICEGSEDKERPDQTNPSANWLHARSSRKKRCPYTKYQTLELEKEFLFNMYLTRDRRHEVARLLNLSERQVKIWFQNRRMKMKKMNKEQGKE
UniProt P17483: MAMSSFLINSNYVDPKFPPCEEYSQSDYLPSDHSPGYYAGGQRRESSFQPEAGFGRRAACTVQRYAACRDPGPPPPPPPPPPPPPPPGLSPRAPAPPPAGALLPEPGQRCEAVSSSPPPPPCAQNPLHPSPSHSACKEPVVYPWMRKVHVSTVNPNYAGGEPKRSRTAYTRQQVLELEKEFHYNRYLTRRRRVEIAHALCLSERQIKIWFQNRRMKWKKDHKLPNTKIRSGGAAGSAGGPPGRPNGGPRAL
UniProt Q9UJC3, whole entry, looked up: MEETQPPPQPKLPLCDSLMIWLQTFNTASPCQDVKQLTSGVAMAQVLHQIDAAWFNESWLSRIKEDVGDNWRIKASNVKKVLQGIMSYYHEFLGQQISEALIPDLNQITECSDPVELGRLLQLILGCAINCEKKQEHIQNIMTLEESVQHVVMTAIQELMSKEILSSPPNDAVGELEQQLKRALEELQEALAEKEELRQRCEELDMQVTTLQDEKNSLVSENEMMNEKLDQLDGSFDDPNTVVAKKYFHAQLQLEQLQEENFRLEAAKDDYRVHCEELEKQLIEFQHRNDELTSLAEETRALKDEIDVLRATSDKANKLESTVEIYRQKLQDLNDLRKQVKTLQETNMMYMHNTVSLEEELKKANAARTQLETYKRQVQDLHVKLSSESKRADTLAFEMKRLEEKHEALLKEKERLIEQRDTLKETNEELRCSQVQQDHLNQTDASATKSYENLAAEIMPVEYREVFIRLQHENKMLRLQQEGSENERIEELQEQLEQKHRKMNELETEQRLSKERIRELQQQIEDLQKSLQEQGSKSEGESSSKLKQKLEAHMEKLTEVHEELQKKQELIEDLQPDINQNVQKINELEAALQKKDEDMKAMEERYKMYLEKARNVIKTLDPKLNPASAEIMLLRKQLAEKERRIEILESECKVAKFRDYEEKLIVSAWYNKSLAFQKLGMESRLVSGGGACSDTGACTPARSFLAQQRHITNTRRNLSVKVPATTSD
UniProt Q05084: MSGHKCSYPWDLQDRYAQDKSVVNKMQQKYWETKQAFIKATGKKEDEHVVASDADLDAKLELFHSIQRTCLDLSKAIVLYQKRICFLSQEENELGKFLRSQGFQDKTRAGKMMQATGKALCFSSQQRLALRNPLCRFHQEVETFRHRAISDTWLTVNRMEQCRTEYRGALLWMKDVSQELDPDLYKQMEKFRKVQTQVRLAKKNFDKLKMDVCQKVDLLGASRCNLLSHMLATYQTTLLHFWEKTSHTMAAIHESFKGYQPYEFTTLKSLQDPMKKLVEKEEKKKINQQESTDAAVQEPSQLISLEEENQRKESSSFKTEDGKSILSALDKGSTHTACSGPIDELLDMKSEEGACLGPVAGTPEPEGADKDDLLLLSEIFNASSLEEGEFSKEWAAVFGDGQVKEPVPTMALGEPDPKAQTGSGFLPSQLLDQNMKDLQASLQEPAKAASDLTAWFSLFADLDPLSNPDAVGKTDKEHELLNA

Assays:
Experiment in all cases: log2 fold change, soluble protein after heating vs DMSO (PISA); higher = thermal stabilisation; K562 cells, 10 uM, 30 min; active = over 0.2 and 3.5 SD of the protein, either way, in both replicates (recomputed)
bafetinib = compound: Cc1ccc(NC(=O)c2ccc(CN3CC[C@H](N(C)C)C3)c(C(F)(F)F)c2)cc1Nc1nccc(-c2cncnc2)n1 [bafetinib]
Outline: (§1)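 K562 cells at 2×10^6 cells/mL were treated for 30 min with 10 μM compound, and aliquots were heated for 3 min over 48°C-58°C before pooling. Extraction used PBS with 0.5% NP-40 at 4°C, and soluble protein was the supernatant after 21,000xg for 90 min, measured by TMTpro 16plex LC-MS/MS with channel sums equalised. Thermal stability values, relative to control samples and from duplicates, are log2 fold changes.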

[1] = compound: Cc1cccc(CC(=O)N2CCc3c2ccc(-c2cn(C)c4ncnc(N)c24)c3F)n1
Outline: as §1

nilotinib = compound: Cc1cn(-c2cc(NC(=O)c3ccc(C)c(Nc4nccc(-c5cccnc5)n4)c3)cc(C(F)(F)F)c2)cn1 [nilotinib]
Outline: as §1

[2] = compound: Cc1nc(Nc2n[nH]c3c2CN(C(=O)N[C@H](CN(C)C)c2ccccc2)C3(C)C)c2sccc2n1
Outline: as §1

dasatinib = compound: Cc1nc(Nc2ncc(C(=O)Nc3c(C)cccc3Cl)s2)cc(N2CCN(CCO)CC2)n1 [dasatinib]
Outline: as §1

[3] = compound: Cc1ncc(-c2ccnc(Nc3ccc(S(C)(=O)=O)cc3)n2)n1C(C)C
Outline: as §1

[4] = compound: Cn1cc(-c2ccc3c(c2)CCN3C(=O)Cc2cccc(C(F)(F)F)c2)c2c(N)ncnc21
Outline: as §1

tipifarnib = compound: Cn1cncc1[C@@](N)(c1ccc(Cl)cc1)c1ccc2c(c1)c(-c1cccc(Cl)c1)cc(=O)n2C [tipifarnib]
Outline: as §1

mubritinib = compound: FC(F)(F)c1ccc(/C=C/c2nc(COc3ccc(CCCCn4ccnn4)cc3)co2)cc1 [mubritinib]
Outline: as §1

[5] = compound: Cn1cc(-c2ccc3nnc(C(F)(F)c4ccc5ncccc5c4)n3n2)cn1
Outline: as §1

Measured: log2 fold change

HNRNPA0 (UniProt Q13151)
inactive: bafetinib 0.118 | [1] -0.104 | nilotinib -0.086 | [2] 0.1 | dasatinib 0.054 | [3] 0.064 | [4] -0.104 | tipifarnib -0.012 | mubritinib -0.103

HSPA8 (UniProt E9PN89)
inactive: bafetinib -0.04 | [1] -0.338 | nilotinib -0.12 | [2] 0.041 | [3] -0.123 | [4] -0.063 | tipifarnib 0.122 | mubritinib 0.004

HIST2H2BC (UniProt Q6DN03)
inactive: bafetinib 0.114 | [1] -0.206 | nilotinib -0.045 | [2] 0.029 | dasatinib 0.218 | [3] -0.001 | [5] -0.048 | tipifarnib 0.12 | mubritinib -0.222

HTD2 (UniProt P86397)
inactive: bafetinib 0.074 | [1] -0.16 | [4] -0.125 | tipifarnib -0.077 | mubritinib 0.071

ICE2 (UniProt Q659A1)
inactive: bafetinib 0.077 | [1] -0.185 | [4] -0.097

HPCAL1 (UniProt P37235)
inactive: bafetinib -0.09 | [1] 0.027 | nilotinib -0.076 | [2] 0.033 | dasatinib -0.031 | [3] -0.028 | [4] -0.011 | [5] 0.053 | tipifarnib -0.032 | mubritinib 0.016

Quoted from the results shown (two entries):
HSPA8 (UniProt E9PN89)
inactive: bafetinib -0.04 | [1] -0.338 | nilotinib -0.12 | [2] 0.041 | [3] -0.123 | [4] -0.063 | tipifarnib 0.122 | mubritinib 0.004

HIST2H2BC (UniProt Q6DN03)
inactive: bafetinib 0.114 | [1] -0.206 | nilotinib -0.045 | [2] 0.029 | dasatinib 0.218 | [3] -0.001 | [5] -0.048 | tipifarnib 0.12 | mubritinib -0.222

Remaining list, next part.

HMGN5 (UniProt Q5JSK9)
inactive: bafetinib -0.054 | [1] -0.127 | dasatinib 0.106 | [4] -0.087 | [5] 0.154 | tipifarnib 0.161 | mubritinib 0.105

HNRNPL (UniProt P14866)
inactive: bafetinib -0.022 | [1] -0.081 | dasatinib 0.158 | [4] -0.178 | [5] -0.017 | tipifarnib 0.189 | mubritinib -0.287

HLA-E (UniProt P13747)
inactive: bafetinib -0.161 | [1] -0.02 | dasatinib 0.038 | [4] -0.059 | tipifarnib 0.041

HNRNPC isoform 2 (UniProt P07910)
inactive: bafetinib 0.159 | [1] -0.228 | nilotinib 0.054 | [2] -0.099 | dasatinib 0.425 | [3] -0.286 | [4] -0.431 | [5] -0.173 | tipifarnib 0.596 | mubritinib -0.268

HMBS (UniProt P08397)
inactive: bafetinib 0 | [1] -0.018 | nilotinib 0.028 | [2] 0.017 | dasatinib 0.049 | [3] 0.003 | [4] 0.011 | [5] 0.02 | tipifarnib -0.021 | mubritinib 0.018

HMGCS1 (UniProt Q01581)
inactive: bafetinib -0.067 | [1] -0.042 | nilotinib -0.018 | [2] -0.06 | dasatinib 0.032 | [3] -0.024 | [4] 0.047 | [5] -0.006 | tipifarnib 0.019 | mubritinib -0.1

HSPA4L (UniProt O95757)
inactive: bafetinib -0.034 | [1] 0.02 | nilotinib -0.045 | [2] -0.006 | dasatinib 0.004 | [3] -0.007 | [4] 0.016 | [5] -0.017 | tipifarnib -0.005 | mubritinib 0

HMGCLL1 (UniProt Q8TB92)
inactive: bafetinib -0.118 | [1] -0.032 | nilotinib -0.035 | [2] -0.058 | dasatinib -0.064 | [3] -0.011 | [4] 0.069 | mubritinib 0.083

HYOU1, A0A494C039
inactive: bafetinib 0.014 | [1] -0.004 | nilotinib -0.01 | [2] -0.108 | dasatinib 0.062 | [3] 0.087 | [4] -0.154 | mubritinib -0.022

HLA-A isoform 2 (UniProt P04439)
inactive: dasatinib -0.034 | [4] -0.086

HSCB (UniProt Q8IWL3)
inactive: [1] 0.034 | nilotinib 0.169 | [2] -0.046 | dasatinib -0.059 | [3] 0.005 | [4] 0.07 | [5] -0.069 | tipifarnib -0.023 | mubritinib -0.123

HSPBAP1 (UniProt Q96EW2)
inactive: [4] -0.173

HIGD1A isoform 2 (UniProt Q9Y241)
inactive: bafetinib -0.019 | nilotinib 0.001 | [2] 0.107 | [3] -0.047 | [5] 0.179 | mubritinib -0.177

ICAM5 (UniProt Q9UMF0)
inactive: bafetinib -0.109 | nilotinib -0.094 | [2] -0.023 | dasatinib 0.017 | [3] 0.047 | [4] 0.064 | [5] -0.227 | mubritinib -0.063

HNRNPU isoform 2 (UniProt Q00839)
inactive: dasatinib 0.034 | tipifarnib 0.053

HSPA2 (UniProt P54652)
inactive: bafetinib -0.08 | nilotinib 0.024 | [2] 0.031 | [3] -0.013 | [5] 0.003 | mubritinib -0.067

HMGXB4 (UniProt Q9UGU5)
inactive: [4] 0.225 | tipifarnib -0.194

HOOK2 (UniProt Q96ED9)
inactive: [4] 0.209 | tipifarnib -0.02

HPS4 isoform 4 (UniProt Q9NQG7)
inactive: [1] 0.244 | nilotinib -0.149 | [2] 0.059 | dasatinib -0.394 | [3] -0.03 | [5] 0.157

HOMER3 (UniProt Q9NSC5)
inactive: [4] -0.086 | mubritinib -0.05

HPF1 (UniProt Q9NWY4)
inactive: dasatinib -0.115

HOXB9 (UniProt P17482)
inactive: bafetinib -0.146 | nilotinib 0.006 | [2] -0.041 | dasatinib -0.039 | [3] -0.056 | [4] -0.015 | [5] 0.027 | tipifarnib 0.003 | mubritinib 0.048

HOXD9 (UniProt P28356)
inactive: [1] 0.122 | dasatinib -0.082 | [4] 0.179

HMCES (UniProt Q96FZ2)
inactive: bafetinib -0.091 | nilotinib -0.021 | [2] 0.209 | dasatinib 0.047 | [3] -0.133 | [5] 0.026 | tipifarnib 0.112 | mubritinib -0.32

HOXB4 (UniProt P17483)
inactive: nilotinib -0.083 | [2] -0.075 | [3] -0.213

ICOSLG isoform 2 (UniProt O75144)
inactive: bafetinib -0.083 | tipifarnib -0.128 | mubritinib -0.037

HMBS (UniProt F5H226)
inactive: bafetinib 0.045 | [1] -0.21 | [4] 0.036 | mubritinib -0.139

HOOK1 (UniProt Q9UJC3)
inactive: dasatinib -0.019 | tipifarnib -0.001

HNRNPUL1 (UniProt M0R247)
inactive: nilotinib 0.061 | [2] -0.13 | dasatinib 0.206 | [3] 0.025 | [4] -0.024 | tipifarnib 0.259

ICA1 isoform 2 (UniProt Q05084)
inactive: [1] -0.035 | dasatinib 0.034 | [4] 0.047 | [5] 0.112

HUWE1 isoform 2 (UniProt Q7Z6Z7)
inactive: dasatinib -0.041 | [4] 0.013

HSBP1 (UniProt O75506)
inactive: bafetinib -0.229 | nilotinib 0.437 | [2] -0.143 | [3] -0.04
